# Results from patent EP2769738B1 (Invivogen, priority 2013, dated 2014).
# Some compounds share one wording; it may come from a single statement.
# Test system: plasmid DNA (pDNA)
# Experiment: Gel shift (mobility shift) assay of pDNA complexes
# Assay type: binding
# Conditions: pDNA:molecule ratio 3:24 (w:w), pBsr2pCpGLacZh plasmid, 0.8% agarose gel, compared to pDNA alone
row,SMILES,complexation of pDNA (retardation of pDNA migration in the gel)
1,"CCCCCCCCCCCCCCCC(=O)OCC(CSC[C@H](N)C(=O)N[C@@H](CCCCNC(=O)CNC(=O)c1ccc(Cn2c(O)nc3c(N)nc(NCCCC)nc32)cc1)C(=O)NCCCNCCCCNCCCN)OC(=O)CCCCCCCCCCCCCCC (stereo partly drawn) [CL475, (6R,9S)-6,23-diamino-9-(4-(2-(4-((6-amino-2-(butylamino)-8-hydroxy-9H-purin-9-yl)methyl)benzamido)acetamido)butyl)-7,10-dioxo-4-thia-8,11,15,20-tetraazatrico sane-1,2-diyl dipalmitate]",inability to migrate through an agarose gel
2,"CCCCCCCCCCCCCCCC(=O)OCC(CSC[C@H](N)C(=O)NCCCC[C@H](NC(=O)c1ccc(Cn2c(O)nc3c(N)nc(NCCCC)nc32)cc1)C(=O)NCCCNCCCCNCCCN)OC(=O)CCCCCCCCCCCCCCC (stereo partly drawn) [CL486, (6R,13S)-6,27-diamino-13-(4-((6-amino-2-(butylamino)-8-hydroxy-9H-purin-9-yl)methyl)benzamido)-7,14-dioxo-4-thia-8,15,19,24-tetraazaheptacosane-1,2-diyl dipalmitate]",inability to migrate through an agarose gel
3,"CCCCCCCCCCCCCCCC(=O)OCC(CSC[C@H](N)C(=O)NCCCC[C@H](NC(=O)CNC(=O)c1ccc(Cn2c(O)nc3c(N)nc(NCCCC)nc32)cc1)C(=O)NCCCNCCCCNCCCN)OC(=O)CCCCCCCCCCCCCCC (stereo partly drawn) [CL487, (6R,13S)-6,27-diamino-13-(2-(4-((6-amino-2-(butylamino)-8-hydroxy-9H-purin-9-yl)methyl)benzamido)acetamido)-7,14-dioxo-4-thia-8,15,19,24-tetraazaheptacosane-1,2-diyl dipalmitate]",inability to migrate through an agarose gel
4,"CCCCCCCCCCCCCCCC(=O)OCC(CSC[C@H](N)C(=O)N[C@@H](COC(=O)c1ccc(Cn2c(O)nc3c(N)nc(NCCCC)nc32)cc1)C(=O)NCCCNCCCCNCCCN)OC(=O)CCCCCCCCCCCCCCC (stereo partly drawn) [CL514, (6R,9S)-6,23-diamino-9-((4-((6-amino-2-(butylamino)-8-hydroxy-9H-purin-9-yl)methyl)benzoyloxy)methyl)-7,10-dioxo-4-thia-8,11,15,20-tetraazatricosane-1,2-diyl dipalmitate]",inability to migrate through an agarose gel
5,"CCCCCCCCCCCCCCCC(=O)OCC(CSC[C@H](N)C(=O)N[C@@H](CCC(=O)NCCCNCCCCNCCCN)C(=O)Nc1ccc(Cn2c(O)nc3c(N)nc(NCCCC)nc32)cc1)OC(=O)CCCCCCCCCCCCCCC (stereo partly drawn) [CL527, (6R,9S)-6,25-diamino-9-(4-((6-amino-2-(butylamino)-8-hydroxy-9H-purin-9-yl)methyl)phenylcarbamoyl)-7,12-dioxo-4-thia-8,13,17,22-tetraazapentacosane-1,2-diyl dipalmitate]",inability to migrate through an agarose gel
6,"CCCCCCCCCCCCCCCC(=O)OCC(CSC[C@H](N)C(=O)NCCCNCCCCNCCCNC(=O)CNC(=O)c1ccc(Cn2c(O)nc3c(N)nc(NCCCC)nc32)cc1)OC(=O)CCCCCCCCCCCCCCC (stereo partly drawn) [CL553, (20R)-20-amino-1-(4-((6-amino-2-(butylamino)-8-hydroxy-9H-purin-9-yl)methyl)phenyl)-1,4,19-trioxo-22-thia-2,5,9,14,18-pentaazapentacosane-24,25-diyl dipalmitate]",inability to migrate through an agarose gel

# Test system: plasmid DNA (pDNA)
# Experiment: Gel shift (mobility shift) assay of pDNA complexes
# Assay type: binding
# Conditions: pDNA:molecule ratio 3:24 (w:w), pBsr2pCpGLacZh plasmid, 0.8% agarose gel, compared to pDNA alone
# Remark: another data set of the same source
row,SMILES,complexation of pDNA (retardation of pDNA migration in the gel)
1,"CCCCCCCCCCCCCCCC(=O)OCC(CSC[C@@H](N)C(=O)N[C@@H](CO)C(=O)N[C@@H](CCCCN)C(=O)N[C@@H](CCCCN)C(=O)N[C@@H](CCCCN)C(=O)N[C@H](CCCCN)C(=O)Nc1ccc(Cn2c(O)nc3c(N)nc(NCCCC)nc32)cc1)OC(=O)CCCCCCCCCCCCCCC (stereo in doubt) [CL413, (6S,9S,12S,15S,18S,21R)-6,25-diamino-21-(4-((6-amino-2-(butylamino)-8-hydroxy-9H-purin-9-yl)methyl)phenylcarbamoyl)-12,15,18-tris(4-aminobutyl)-9-(hydroxylmethyl)-7,10, 13,16,19-pentaoxo-4-thia-8,11,14,17,20-pentaazapentacosane-1,2-diyl dipalmitate]",inability to migrate through an agarose gel
2,"CCCCCCCCCCCCCCCC(=O)OCC(CSC[C@H](N)C(=O)N[C@@H](CO)C(=O)N[C@@H](CCCCN)C(=O)N[C@@H](CCCCN)C(=O)N[C@@H](CCCCNC(=O)c1ccc(Cn2c(O)nc3c(N)nc(NCCCC)nc32)cc1)C(=O)N[C@@H](CCCCN)C(=O)O)OC(=O)CCCCCCCCCCCCCCC (stereo partly drawn) [CL530, (2S,5S,8S,11S,14S,17R)-17-amino-5-(4-(4-((6-amino-2-(butylamino)-8-hydroxy-9H-purin-9-yl)methyl)benzamido)butyl)-2,8,11-tris(4-aminobutyl)-14-(hydroxymethyl) -4,7,10,13,16,24-hexaoxo-21-(palmitoyloxy)-23-oxa-19-thia-3,6,9,12,15-pentaaza nonatriacontan-1-oic acid]",inability to migrate through an agarose gel
3,"CCCCCCCCCCCCCCCC(=O)OCC(CSC[C@H](N)C(=O)N[C@@H](CO)C(=O)N[C@@H](CCCCN)C(=O)N[C@@H](CCCCNC(=O)c1ccc(Cn2c(O)nc3c(N)nc(NCCCC)nc32)cc1)C(=O)N[C@@H](CCCCN)C(=O)N[C@@H](CCCCN)C(=O)O)OC(=O)CCCCCCCCCCCCCCC (stereo partly drawn) [CL531, (2S,5S,8S,11S,14S,17R)-17-amino-8-(4-(4-((6-amino-2-(butylamino)-8-hydroxy-9H-purin-9-yl)methyl)benzamido)butyl)-2,5,11-tris(4-aminobutyl)-14-(hydroxymethyl) -4,7,10,13,16,24-hexaoxo-21-(palmitoyloxy)-23-oxa-19-thia-3,6,9,12,15-pentaaza nonatriacontan-1-oic acid]",inability to migrate through an agarose gel
4,"CCCCCCCCCCCCCCCC(=O)OCC(CSC[C@H](N)C(=O)N[C@@H](CO)C(=O)N[C@@H](CCCCNC(=O)c1ccc(Cn2c(O)nc3c(N)nc(NCCCC)nc32)cc1)C(=O)N[C@@H](CCCCN)C(=O)N[C@@H](CCCCN)C(=O)N[C@@H](CCCCN)C(=O)O)OC(=O)CCCCCCCCCCCCCCC (stereo partly drawn) [CL533, (2S,5S,8S,11S,14S,17R)-17-amino-11-(4-(4-((6-amino-2-(butylamino)-8-hydroxy-9H-purin-9-yl)methyl)benzamido)butyl)-2,5,8-tris(4-aminobutyl)-14-(hydroxylmethyl)-4,7,10,13,16,24-hexaoxo-21-(palmitoyloxy)-23-oxa-19-thia-3,6,9,12,15-pentaazanonatria contan-1-oic acid]",inability to migrate through an agarose gel
5,"CCCCCCCCCCCCCCCC(=O)N[C@@H](CSCC(COC(=O)CCCCCCCCCCCCCCC)OC(=O)CCCCCCCCCCCCCCC)C(=O)N[C@@H](CO)C(=O)N[C@@H](CCCCN)C(=O)N[C@@H](CCCCN)C(=O)N[C@@H](CCCCN)C(=O)N[C@@H](CCCCN)C(=O)Nc1ccc(Cn2c(O)nc3c(N)nc(NCCCC)nc32)cc1 (stereo partly drawn) [CL534, ((6R,9S,12S,15S,18S,21S)-25-amino-21-(4-((6-amino-2-(butylamino)-8-hydroxy-9H-purin-9-yl)methyl)phenylcarbamoyl)-12,15,18-tris(4-aminobutyl)-9-(hydroxylmethyl)-7,10,13,16,19-pentaoxo-6-palmitamido-4-thia-8,11,14,17,20-pentaazapentacosane-1,2-diyl dipalmitate]",inability to migrate through an agarose gel
6,"CCCCCCCCCCCCCCCC(=O)N[C@@H](CSCC(COC(=O)CCCCCCCCCCCCCCC)OC(=O)CCCCCCCCCCCCCCC)C(=O)N[C@@H](CO)C(=O)N[C@@H](CCCCN)C(=O)N[C@@H](CCCCN)C(=O)N[C@@H](CCCCNC(=O)c1ccc(Cn2c(O)nc3c(N)nc(NCCCC)nc32)cc1)C(=O)N[C@@H](CCCCN)C(=O)O (stereo partly drawn) [CL535, (2S,5S,8S,11S,14S,17R)-5-(4-(4-((6-amino-2-(butylamino)-8-hydroxy-9H-purin-9-yl)methyl)benzamido)butyl)-2,8,11-tris(4-aminobutyl)-14-(hydroxymethyl)-4,7,10, 13,16,24-hexaoxo-17-palmitamido-21-(palmitoyloxy)-23-oxa-19-thia-3,6,9,12,15-pentaazanonatriacontan-1-oic acid]",inability to migrate through an agarose gel
7,"CCCCCCCCCCCCCCCC(=O)N[C@@H](CSCC(COC(=O)CCCCCCCCCCCCCCC)OC(=O)CCCCCCCCCCCCCCC)C(=O)N[C@@H](CO)C(=O)N[C@@H](CCCCN)C(=O)N[C@@H](CCCCNC(=O)c1ccc(Cn2c(O)nc3c(N)nc(NCCCC)nc32)cc1)C(=O)N[C@@H](CCCCN)C(=O)N[C@@H](CCCCN)C(=O)O (stereo partly drawn) [CL536, (2S,5S,8S,11S,14S,17R)-8-(4-(4-((6-amino-2-(butylamino)-8-hydroxy-9H-purin-9-yl)methyl)benzamido)butyl)-2,5,11-tris(4-aminobutyl)-14-(hydroxymethyl)-4,7,10, 13,16,24-hexaoxo-17-palmitamido-21-(palmitoyloxy)-23-oxa-19-thia-3,6,9,12,15-pentaazanonatriacontan-1-oic acid]",inability to migrate through an agarose gel
8,"CCCCCCCCCCCCCCCC(=O)N[C@@H](CSCC(COC(=O)CCCCCCCCCCCCCCC)OC(=O)CCCCCCCCCCCCCCC)C(=O)N[C@@H](CO)C(=O)N[C@@H](CCCCNC(=O)c1ccc(Cn2c(O)nc3c(N)nc(NCCCC)nc32)cc1)C(=O)N[C@@H](CCCCN)C(=O)N[C@@H](CCCCN)C(=O)N[C@@H](CCCCN)C(=O)O (stereo partly drawn) [CL537, (2S,5S,8S,11S,14S,17R)-11-(4-(4-((6-amino-2-(butylamino)-8-hydroxy-9H-purin-9-yl)methyl)benzamido)butyl)-2,5,8-tris(4-aminobutyl)-14-(hydroxymethyl)-4,7,10, 13,16,24-hexaoxo-17-palmitamido-21-(palmitoyloxy)-23-oxa-19-thia-3,6,9,12,15-pentaazanonatria contan-1-oic acid]",inability to migrate through an agarose gel
